For 1 substance, binding results are on record in paper PMC9987799.

By UniProt entry, the sequences of proteins in these tests, tags left out. Residues count along the entry.
UniProt P26196, residues 289-483: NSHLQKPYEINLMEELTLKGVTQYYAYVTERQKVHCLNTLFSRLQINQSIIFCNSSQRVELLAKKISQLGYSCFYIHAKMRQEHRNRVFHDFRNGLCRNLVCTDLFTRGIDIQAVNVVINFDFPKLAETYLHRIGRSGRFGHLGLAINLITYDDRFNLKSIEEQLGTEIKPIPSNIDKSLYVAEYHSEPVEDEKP

No constants are given. Whether binding was seen depends on the method and setting. Tags and fused reporters may be left off the sequences shown.

For the assay, the target named is T1, GFP-PATL1(398–770) (UniProt Q86TB9).
T1 sequence: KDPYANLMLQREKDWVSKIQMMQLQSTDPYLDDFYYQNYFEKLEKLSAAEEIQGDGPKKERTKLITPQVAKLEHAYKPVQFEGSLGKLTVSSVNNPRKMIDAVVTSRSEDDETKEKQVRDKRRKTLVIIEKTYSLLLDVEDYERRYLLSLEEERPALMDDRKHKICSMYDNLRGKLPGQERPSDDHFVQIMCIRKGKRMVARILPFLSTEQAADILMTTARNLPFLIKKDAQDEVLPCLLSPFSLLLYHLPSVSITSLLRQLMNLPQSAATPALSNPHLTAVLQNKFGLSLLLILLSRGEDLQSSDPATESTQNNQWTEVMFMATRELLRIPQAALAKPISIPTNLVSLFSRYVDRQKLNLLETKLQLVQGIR
Put plainly: two-hybrid; fluorescence-based mammalian two-hybrid with three plasmids (NLS-EDC4, a GFP-PATL1 construct, mCh-NLS-DDX6(289–483)) in HEp-2 cells, treated with leptomycin B for two hours.

In the case of “mCh-NLS-DDX6(289–483) (from UniProt P26196 289-483) (domain or fragment)”, the binding result is on record as “no binding”.
